According to US20170269060A1, “Assays and Compounds to Treat Kidney Diseases” (Rush University Medical Center, priority 2014, published 2017):
For at least one compound, name, drawing or mass did not settle the structure.

System: murine podocytes
Assay: Podocyte HCS phenotypic assay, PAN-induced podocyte injury
Type: cell-based
Settings: PAN 16-30 μg/ml, 48 hours, F-actin fibers and other parameters
Protocol: Conditionally immortalized human and murine podocytes were used in a majority of the assays. Human and murine podocytes were cultured as have been described previously (Saleem et al., JASN 13, 630-638 (2002); Mundel, Reiser et al., Experimental Cell Research, 236, p 248 (1997)). For example, murine podocytes derived from the mouse line H-2Kb-tsA58 were cultured under permissive conditions at 33° C. on rat-tail collagen coated dishes in RPMI medium supplemented with 10% heat inactivated FBS, penicillin and streptomycin (100 U/ml), and 10 U/ml recombinant mouse γ-interferon. Cells were then trypsinized and re-plated for differentiation at 37° C. in medium without γ-interferon. […]
After culturing for the appropriate time and treatment or control, cultured podocytes in multi-well optical plates were rinsed with phosphate buffered saline (PBS) and subsequently fixed using a solution of paraformaldehyde and sucrose in PBS (at a final concentration of 4% paraformaldehyde and 2% sucrose in PBS) for 30 min at room temperature. […] Additional proteins that were fluorescently labeled and analyzed using appropriate primary mAbs include synaptopodin (synpo, primary mAb from Santa Cruz), Paxillin (primary mAb clone Y113 from Millipore) for quantitation of focal adhesions, beta1 integrin, podocin, WT1 nephrin, CD2-AP may also be used. […]

C[C@@H]1C[C@H]2[C@@H]3CCC4=CC(=O)C=C[C@]4(C)[C@@]3(F)[C@@H](O)C[C@]2(C)[C@@]1(O)C(=O)CO [DEX, Dexamethasone]
dose-dependent protection of podocytes from PAN-induced injury: dose-dependent protection
